PubChem BioAssay AID1259308 – NCATS | 2017
Aim: 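Candidate targets for better recombinant protein yield in mammalian cells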 (primary screen). System: human HEK293 embryonic kidney cells stably expressing firefly luciferase (HEK-CMV-Luc2-Hygro). Reagents: single siRNA against human genes, 0.8 pmol siRNA per well. Duration: 72 h. Measurement: 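Luciferase light (ONE-Glo) measured on one replicate plate set and viability (CellTiter-Glo) on the other, scaled to a negative control siRNA, with robust z-scores and luciferase per cell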. Scale: total luciferase, z-score: higher = more reporter protein produced. Rule for the call: 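Active when the median/MAD z-score for overall luciferase is greater than 3; a gene was taken forward for validation with new siRNAs if at least two of its three siRNAs passed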. Calls: active = raised luciferase; inactive = no rise.
In all, the deposit lists about 59,000 reagents; this is an unselected part. Over the whole deposit, about 1,510 (2.6%) were called active. 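Calls use total luciferase alone and ignore viability, so some active siRNAs may act by altering cell number.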 Reagents against one gene are numbered here. Not all columns of the deposit are shown.

BZW1 #1 → total luciferase, z-score = 0.344; Call = inactive
BZW1 #2 → total luciferase, z-score = 1.75; Call = inactive
BZW1 #3 → total luciferase, z-score = -0.635; Call = inactive
ZIM3 #1 → total luciferase, z-score = -1.12; Call = inactive
ZIM3 #2 → total luciferase, z-score = -0.525; Call = inactive
ZIM3 #3 → total luciferase, z-score = -1.05; Call = inactive
GABBR2 #1 → total luciferase, z-score = -0.932; Call = inactive
GABBR2 #2 → total luciferase, z-score = -0.174; Call = inactive
GABBR2 #3 → total luciferase, z-score = 0.0512; Call = inactive
FIP1L1 #1 → total luciferase, z-score = 0.184; Call = inactive
FIP1L1 #2 → total luciferase, z-score = -0.48; Call = inactive
FIP1L1 #3 → total luciferase, z-score = -1.05; Call = inactive
ATP8B5P #1 → total luciferase, z-score = 1.01; Call = inactive
ATP8B5P #2 → total luciferase, z-score = -0.682; Call = inactive
ATP8B5P #3 → total luciferase, z-score = 0.505; Call = inactive
REXO4 #1 → total luciferase, z-score = -1.75; Call = inactive
REXO4 #2 → total luciferase, z-score = -0.549; Call = inactive
REXO4 #3 → total luciferase, z-score = 0.934; Call = inactive

Copied from above (5 entries):
FIP1L1 #1 → total luciferase, z-score = 0.184; Call = inactive
FIP1L1 #2 → total luciferase, z-score = -0.48; Call = inactive
FIP1L1 #3 → total luciferase, z-score = -1.05; Call = inactive
ATP8B5P #1 → total luciferase, z-score = 1.01; Call = inactive
ATP8B5P #2 → total luciferase, z-score = -0.682; Call = inactive

Continued:
ATG3 #1 → total luciferase, z-score = 0.102; Call = inactive
ATG3 #2 → total luciferase, z-score = 0.812; Call = inactive
ATG3 #3 → total luciferase, z-score = -1.74; Call = inactive
ALK #1 → total luciferase, z-score = 0.725; Call = inactive
ALK #2 → total luciferase, z-score = -2.06; Call = inactive
ALK #3 → total luciferase, z-score = -0.69; Call = inactive
ADRB1 #1 → total luciferase, z-score = -0.0977; Call = inactive
ADRB1 #2 → total luciferase, z-score = 0.0805; Call = inactive
ADRB1 #3 → total luciferase, z-score = 1.71; Call = inactive
RPRD1A #1 → total luciferase, z-score = -0.69; Call = inactive
RPRD1A #2 → total luciferase, z-score = -0.831; Call = inactive
RPRD1A #3 → total luciferase, z-score = -1.68; Call = inactive
KMT2B #1 → total luciferase, z-score = -0.223; Call = inactive
KMT2B #2 → total luciferase, z-score = -0.0329; Call = inactive
KMT2B #3 → total luciferase, z-score = 0.792; Call = inactive
